Earlier results, collected in PMC9310824, “Alendronate modified mPEG-PLGA nano-micelle drug delivery system loaded with astragaloside has anti-osteoporotic effect in rats” (Drug Delivery, 2022).

Details: ref Katsumi et al., 2015; cited from earlier work

NCCCC(O)(P(=O)(O)O)P(=O)(O)O [Al, Alendronate]
bone uptake rate: 50%–60%
